Laboratory results: patent US20220064275A1
Changes are numbered by the printed parent chain. These are yes or no findings as the source states them, for the method shown. Some results given as binding are weak or reduced against the parent protein; the word gives no strength.

Sequences of proteins named here, by UniProt entry; tags and fusion partners are left off. A change or cut given only in a name is not applied to a line headed by its entry.
UniProt Q61810: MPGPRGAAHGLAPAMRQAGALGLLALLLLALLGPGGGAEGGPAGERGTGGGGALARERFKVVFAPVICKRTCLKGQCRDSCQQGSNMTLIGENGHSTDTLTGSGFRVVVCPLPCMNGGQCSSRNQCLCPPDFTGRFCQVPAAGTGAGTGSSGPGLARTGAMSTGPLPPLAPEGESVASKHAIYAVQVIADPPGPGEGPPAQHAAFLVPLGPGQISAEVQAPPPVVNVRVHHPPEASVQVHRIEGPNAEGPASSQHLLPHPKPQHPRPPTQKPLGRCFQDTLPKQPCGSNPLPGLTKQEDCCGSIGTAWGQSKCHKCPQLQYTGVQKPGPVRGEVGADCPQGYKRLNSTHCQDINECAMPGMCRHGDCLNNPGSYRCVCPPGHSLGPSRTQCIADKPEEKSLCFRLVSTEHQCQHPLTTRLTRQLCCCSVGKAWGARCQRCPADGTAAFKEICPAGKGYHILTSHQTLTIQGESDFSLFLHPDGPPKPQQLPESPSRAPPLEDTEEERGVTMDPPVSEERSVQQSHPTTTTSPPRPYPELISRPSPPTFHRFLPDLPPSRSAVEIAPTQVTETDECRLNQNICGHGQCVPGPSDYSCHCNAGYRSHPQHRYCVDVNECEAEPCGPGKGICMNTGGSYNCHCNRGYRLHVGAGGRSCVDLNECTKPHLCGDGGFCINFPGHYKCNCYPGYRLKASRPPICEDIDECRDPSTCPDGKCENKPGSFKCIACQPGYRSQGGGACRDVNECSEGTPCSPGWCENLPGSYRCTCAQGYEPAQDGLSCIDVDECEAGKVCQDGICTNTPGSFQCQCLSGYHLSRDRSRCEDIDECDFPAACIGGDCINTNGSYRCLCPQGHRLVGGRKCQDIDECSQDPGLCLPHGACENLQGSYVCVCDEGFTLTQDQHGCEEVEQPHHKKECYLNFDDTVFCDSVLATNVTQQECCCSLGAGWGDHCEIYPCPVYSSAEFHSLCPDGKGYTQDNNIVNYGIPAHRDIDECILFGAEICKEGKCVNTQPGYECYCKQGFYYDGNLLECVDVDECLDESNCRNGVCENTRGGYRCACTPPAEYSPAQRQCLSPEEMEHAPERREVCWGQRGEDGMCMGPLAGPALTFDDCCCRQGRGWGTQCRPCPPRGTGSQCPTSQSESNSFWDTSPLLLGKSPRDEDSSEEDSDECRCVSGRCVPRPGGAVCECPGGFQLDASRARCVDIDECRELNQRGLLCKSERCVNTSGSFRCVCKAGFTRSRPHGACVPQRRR
UniProt Q8CG19: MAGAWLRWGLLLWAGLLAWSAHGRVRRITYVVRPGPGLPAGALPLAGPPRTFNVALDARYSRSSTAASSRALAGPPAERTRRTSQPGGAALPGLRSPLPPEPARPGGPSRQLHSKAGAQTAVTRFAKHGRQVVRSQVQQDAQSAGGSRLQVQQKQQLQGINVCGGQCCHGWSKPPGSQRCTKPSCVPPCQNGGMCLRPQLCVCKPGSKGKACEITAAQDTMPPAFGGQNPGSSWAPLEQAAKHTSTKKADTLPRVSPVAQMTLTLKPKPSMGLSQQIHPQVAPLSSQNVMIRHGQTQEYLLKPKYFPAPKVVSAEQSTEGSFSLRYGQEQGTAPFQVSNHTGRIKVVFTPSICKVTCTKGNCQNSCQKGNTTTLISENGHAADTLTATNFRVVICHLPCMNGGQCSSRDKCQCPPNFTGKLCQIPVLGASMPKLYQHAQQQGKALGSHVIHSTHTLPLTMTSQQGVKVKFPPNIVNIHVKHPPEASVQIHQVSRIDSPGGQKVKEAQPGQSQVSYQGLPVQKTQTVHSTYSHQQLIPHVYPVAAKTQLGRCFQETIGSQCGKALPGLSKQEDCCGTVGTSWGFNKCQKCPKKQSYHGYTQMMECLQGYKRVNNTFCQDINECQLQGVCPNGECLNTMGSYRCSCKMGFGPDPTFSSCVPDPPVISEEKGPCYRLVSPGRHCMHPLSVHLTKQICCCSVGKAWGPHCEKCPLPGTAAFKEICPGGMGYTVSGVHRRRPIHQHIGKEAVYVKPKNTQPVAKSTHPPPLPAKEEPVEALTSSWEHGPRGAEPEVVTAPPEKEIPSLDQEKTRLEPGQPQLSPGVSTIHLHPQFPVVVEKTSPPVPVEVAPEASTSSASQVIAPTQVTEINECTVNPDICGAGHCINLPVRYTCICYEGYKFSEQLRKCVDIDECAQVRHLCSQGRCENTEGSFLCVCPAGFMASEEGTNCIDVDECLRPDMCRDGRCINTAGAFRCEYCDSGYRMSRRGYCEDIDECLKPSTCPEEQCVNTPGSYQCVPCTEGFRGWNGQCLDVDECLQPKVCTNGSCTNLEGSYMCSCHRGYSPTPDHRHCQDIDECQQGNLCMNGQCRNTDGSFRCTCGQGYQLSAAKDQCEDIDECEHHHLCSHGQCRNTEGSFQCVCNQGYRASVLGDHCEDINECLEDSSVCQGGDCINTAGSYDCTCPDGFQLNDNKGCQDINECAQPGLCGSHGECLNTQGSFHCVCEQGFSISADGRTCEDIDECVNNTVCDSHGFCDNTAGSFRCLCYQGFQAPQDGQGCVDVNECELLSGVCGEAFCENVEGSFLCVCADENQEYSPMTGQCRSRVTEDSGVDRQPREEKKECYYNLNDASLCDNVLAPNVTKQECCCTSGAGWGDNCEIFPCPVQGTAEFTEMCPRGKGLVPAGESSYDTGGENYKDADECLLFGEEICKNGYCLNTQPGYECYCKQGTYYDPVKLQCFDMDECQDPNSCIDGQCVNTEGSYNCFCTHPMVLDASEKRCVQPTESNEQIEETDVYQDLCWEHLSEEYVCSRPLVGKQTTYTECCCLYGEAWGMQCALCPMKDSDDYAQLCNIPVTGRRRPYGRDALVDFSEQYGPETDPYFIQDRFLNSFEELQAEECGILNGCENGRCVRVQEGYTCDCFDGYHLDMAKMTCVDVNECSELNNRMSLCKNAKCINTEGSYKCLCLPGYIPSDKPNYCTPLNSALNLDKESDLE
UniProt P17246: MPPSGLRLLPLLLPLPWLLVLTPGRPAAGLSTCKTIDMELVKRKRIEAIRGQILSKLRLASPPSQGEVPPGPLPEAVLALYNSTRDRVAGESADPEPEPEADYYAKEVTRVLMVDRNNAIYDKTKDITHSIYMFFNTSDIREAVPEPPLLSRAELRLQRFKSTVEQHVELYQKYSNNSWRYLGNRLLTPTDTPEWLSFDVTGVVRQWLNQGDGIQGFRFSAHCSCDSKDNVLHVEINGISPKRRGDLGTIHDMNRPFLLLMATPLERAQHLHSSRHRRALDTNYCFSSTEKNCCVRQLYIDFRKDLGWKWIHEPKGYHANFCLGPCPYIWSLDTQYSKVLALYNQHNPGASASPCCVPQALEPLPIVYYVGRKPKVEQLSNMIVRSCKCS
UniProt Q5BK65: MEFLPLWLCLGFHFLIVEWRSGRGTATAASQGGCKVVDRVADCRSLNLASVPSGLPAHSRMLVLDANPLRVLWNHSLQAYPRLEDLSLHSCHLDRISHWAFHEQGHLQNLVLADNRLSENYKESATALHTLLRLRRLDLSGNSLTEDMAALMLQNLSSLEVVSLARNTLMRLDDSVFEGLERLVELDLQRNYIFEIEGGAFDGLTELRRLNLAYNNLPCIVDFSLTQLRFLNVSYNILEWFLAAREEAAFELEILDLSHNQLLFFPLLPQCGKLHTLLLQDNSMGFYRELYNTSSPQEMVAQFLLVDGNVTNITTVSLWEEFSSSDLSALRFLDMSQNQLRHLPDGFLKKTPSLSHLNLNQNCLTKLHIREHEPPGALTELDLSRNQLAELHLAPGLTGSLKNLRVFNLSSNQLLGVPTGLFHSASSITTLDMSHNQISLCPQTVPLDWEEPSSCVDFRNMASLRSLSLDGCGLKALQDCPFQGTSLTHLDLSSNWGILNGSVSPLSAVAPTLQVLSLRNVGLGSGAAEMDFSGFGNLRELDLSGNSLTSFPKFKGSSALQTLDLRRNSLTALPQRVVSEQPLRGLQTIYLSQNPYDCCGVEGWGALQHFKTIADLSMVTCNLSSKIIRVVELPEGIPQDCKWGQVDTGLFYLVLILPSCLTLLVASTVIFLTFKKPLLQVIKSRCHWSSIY
UniProt Q86YC3: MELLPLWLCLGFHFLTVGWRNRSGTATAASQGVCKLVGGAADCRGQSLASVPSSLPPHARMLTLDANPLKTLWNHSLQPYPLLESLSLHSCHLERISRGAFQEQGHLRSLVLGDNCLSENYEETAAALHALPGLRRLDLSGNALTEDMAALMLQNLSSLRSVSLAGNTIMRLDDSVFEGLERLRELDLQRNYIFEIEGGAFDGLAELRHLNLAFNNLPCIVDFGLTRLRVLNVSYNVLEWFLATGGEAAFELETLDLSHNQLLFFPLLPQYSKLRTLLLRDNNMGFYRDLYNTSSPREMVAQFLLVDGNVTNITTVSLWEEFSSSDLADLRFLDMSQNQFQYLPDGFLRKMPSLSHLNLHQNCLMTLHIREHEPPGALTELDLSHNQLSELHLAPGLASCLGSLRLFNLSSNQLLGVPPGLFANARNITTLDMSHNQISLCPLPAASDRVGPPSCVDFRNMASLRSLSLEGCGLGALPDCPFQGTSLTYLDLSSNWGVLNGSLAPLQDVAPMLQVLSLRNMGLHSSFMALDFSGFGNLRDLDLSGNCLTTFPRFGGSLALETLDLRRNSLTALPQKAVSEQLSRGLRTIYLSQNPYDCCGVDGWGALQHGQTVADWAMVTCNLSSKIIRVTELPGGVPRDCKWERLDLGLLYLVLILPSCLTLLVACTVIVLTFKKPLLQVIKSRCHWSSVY
UniProt P01137: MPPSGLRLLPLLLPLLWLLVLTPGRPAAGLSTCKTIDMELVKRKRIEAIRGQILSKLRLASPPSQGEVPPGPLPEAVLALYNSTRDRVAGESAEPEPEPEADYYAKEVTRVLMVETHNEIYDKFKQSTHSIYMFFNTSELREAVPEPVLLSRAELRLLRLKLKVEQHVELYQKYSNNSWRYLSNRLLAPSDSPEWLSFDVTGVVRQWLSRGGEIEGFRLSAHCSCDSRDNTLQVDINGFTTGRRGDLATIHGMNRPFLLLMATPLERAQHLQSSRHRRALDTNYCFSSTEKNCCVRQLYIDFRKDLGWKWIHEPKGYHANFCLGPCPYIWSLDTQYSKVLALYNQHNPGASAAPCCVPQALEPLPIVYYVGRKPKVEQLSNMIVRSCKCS

Experiments:
[1] = target: murine LTBP3-proTGFβ1 complex (mouse) (UniProt Q61810); assay: BLI screen of human and murine LLCs
[2] = target: murine LTBP1-proTGFβ1 complex (mouse) (UniProt Q8CG19); assay: BLI screen of human and murine LLCs
[3] = target: rat LTBP1-proTGFβ1 complex (rat) (UniProt Q00918+P17246); assay: MSD-SET
[4] = target: rat LRRC33-proTGFβ1 complex (rat) (UniProt Q5BK65+P17246); assay: MSD-SET
[5] = target: hLRRC33-proTGFβ1 complex on cells (human) (UniProt Q86YC3); assay: Incucyte internalization assay on Expi293 cells expressing LRRC33-proTGFβ1
[6] = target: human proTGFβ1 C4S (human) (UniProt P01137); assay: HDX-MS

B1: Ab4 (antibody, IgG4, V domains shown)
VH: EVQLVESGGGLVQPGGSLRLSCAASGFTFSSYSMNWVRQAPGKGLEWVSYISSSSSTIYYADSVKGRFTISRDNAKNSLYLQMNSLRAEDTAVYYCARGVLDYGDMLDPWGQGTLVTVSS
VL: DIQMTQSPSSLSASVGDRVTITCQASQDITNYLNWYQQKPGKAPKLLIYDASNLETGVPSRFSGSGSGTDFTFTISSLQPEDIATYYCQQADNHPPWTFGGGTKVEIK
binding [1]: binds
binding [2]: binds

B2: Ab6 (antibody, human IgG4 S228P, kappa, V domains shown)
VH: B1 VH with A23T, Y32F, N35D, S53P, S55A, S56D, S78T, D108M
VL: DIQMTQSPSSLSASVGDRVTITCQASQDITNYLNWYQQKPGKAPKLLIYDASNLETGVPSRFSGSGSGTDFTFTISSLQPEDIATYYCQQADNHPPWTFGGGTKVEIKR
binding [3]: binds
binding [4]: binds
binding [5]: binds

B3: Ab5 Fab (Fab, V domains shown)
VH: B1 VH with Y32F, N35D, S53P, S54D, S55A
VL: B1 VL
binding [6]: binds
